Here are results for 6 substances from US20230399373A1 (THE TRUSTEES OF INDIANA UNIVERSITY, priority 2020, published 2023).

This data set can be described thus: peptide synthesis. Particulars: whole synthesis, LC-MS (Finnigan LCQ Advantage) on TARGA C8, 5-45%B over 45 min (printed for identity).

One purity is given for all peptides; the source may state it once. Non-standard residues stand in square brackets, D forms with d. *: point of attachment. Boc = CC(C)(C)OC(=O)*; Sar = CNCC(=O)O; tBu = CC(C)(C)*

Consider Boc-GFFY(tBu)G-OH, for which the “final LC-MS purity” value is reported as above 95%. In the case of Boc-GFFY(tBu)T(tBu)-OH, the “final LC-MS purity” value is reported as above 95%. As for Boc-GFF[Sar]-OH, the figure is above 95%. As for GFFYG[APD], the “final LC-MS purity” value is above 95%. As for GFFYTG[APD], the “final LC-MS purity” value was above 95%. As for GFFYT[APD], the figure is above 95%.
